These are yes or no findings as the source states them, for the method shown. In cells and extracts the contact can be indirect. Some results given as binding are weak or reduced against the parent protein; the word gives no strength. Tags and fused reporters may be left off the sequences shown.
Biological target: T1, Glutathione S Transferase (GST)‐tagged GAT domain of GGA3 (UniProt Q9NZ52)
T1 sequence: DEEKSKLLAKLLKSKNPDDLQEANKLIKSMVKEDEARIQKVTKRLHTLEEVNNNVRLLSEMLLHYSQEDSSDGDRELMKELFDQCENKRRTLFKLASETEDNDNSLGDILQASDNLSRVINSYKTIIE
Experiment: pull-down; GST‐GGA3 GAT (~40 μg) prebound to glutathione‐Sepharose 4B beads, incubated with equal amounts of HeLa lysates at 4°C for 1 h; lysis buffer 1% Triton X‐100, 50 mM Tris pH 7.5, 100 mM NaCl, 2 mM MgCl2, 0.1% SDS, 0.5% sodium deoxycholate, 10% glycerol; cells serum starved and stimulated with EGF for the indicated times (parental, shControl and shGIV cells); bound Arf1 detected by immunoblot; only the target purified

By UniProt entry, the sequences of proteins in these tests, tags left out.
UniProt P84077: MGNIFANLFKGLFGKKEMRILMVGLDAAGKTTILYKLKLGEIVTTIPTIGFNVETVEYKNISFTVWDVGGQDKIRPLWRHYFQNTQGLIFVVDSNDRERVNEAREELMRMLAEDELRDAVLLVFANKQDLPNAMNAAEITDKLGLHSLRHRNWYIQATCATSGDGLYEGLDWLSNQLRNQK

- binding: binds
Substance: Arf1 (from UniProt P84077 1-181)
